Experimental data from PMC5775731.
No constants are given. Whether binding was seen depends on the method and setting. Binding seen in cells or lysates may run through a third protein. Some results given as binding are weak or reduced against the parent protein; the word gives no strength.

The chains behind the UniProt entries cited, without tags or fusion partners.
UniProt P29351: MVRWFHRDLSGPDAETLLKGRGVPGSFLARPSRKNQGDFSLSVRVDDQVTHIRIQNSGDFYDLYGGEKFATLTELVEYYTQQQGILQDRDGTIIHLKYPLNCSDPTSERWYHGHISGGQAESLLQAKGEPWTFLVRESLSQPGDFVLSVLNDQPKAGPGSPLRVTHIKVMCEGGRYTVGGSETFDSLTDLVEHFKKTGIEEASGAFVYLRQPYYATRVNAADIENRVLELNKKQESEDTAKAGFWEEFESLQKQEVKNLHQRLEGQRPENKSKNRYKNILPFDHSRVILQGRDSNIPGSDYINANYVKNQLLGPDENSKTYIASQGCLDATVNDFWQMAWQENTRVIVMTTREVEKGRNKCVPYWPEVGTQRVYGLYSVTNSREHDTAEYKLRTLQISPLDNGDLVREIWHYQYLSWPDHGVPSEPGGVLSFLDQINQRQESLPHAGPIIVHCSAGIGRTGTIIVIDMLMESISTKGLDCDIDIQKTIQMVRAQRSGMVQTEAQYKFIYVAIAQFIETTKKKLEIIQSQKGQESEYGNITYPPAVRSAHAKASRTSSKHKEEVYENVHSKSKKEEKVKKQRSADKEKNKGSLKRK

Target: T1, siglec-E (mouse (endogenous in BMDM)) (UniProt Q91Y57)
T1 sequence (chain, constitutively tyrosine-phosphorylated (sites not stated)): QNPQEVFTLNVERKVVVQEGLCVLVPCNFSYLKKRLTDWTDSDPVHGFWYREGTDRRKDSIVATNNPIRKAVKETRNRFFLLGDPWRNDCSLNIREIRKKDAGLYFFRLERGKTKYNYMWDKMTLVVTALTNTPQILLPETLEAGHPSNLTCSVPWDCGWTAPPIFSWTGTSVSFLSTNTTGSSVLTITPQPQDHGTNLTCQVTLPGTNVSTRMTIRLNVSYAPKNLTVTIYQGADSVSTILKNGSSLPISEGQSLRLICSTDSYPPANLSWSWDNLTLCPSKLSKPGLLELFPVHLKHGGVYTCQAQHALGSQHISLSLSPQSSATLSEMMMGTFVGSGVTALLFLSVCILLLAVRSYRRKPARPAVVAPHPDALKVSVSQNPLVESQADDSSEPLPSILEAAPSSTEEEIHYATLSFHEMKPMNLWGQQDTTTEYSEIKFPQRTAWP
Experiment: co-IP; lysate of WT (and KO2 control) BMDM primed with 1 ng/ml LPS for 3 days; lysis in 50 mM Tris-HCl, 150 mM NaCl, 1% NP-40 with protease and phosphatase inhibitors; IP with sheep anti-siglec-E Ab, immunoblot for phosphotyrosine, SHP-1 and siglec-E

protein tyrosine phosphatase SHP-1 (from UniProt P29351 1-595) (enzyme)
binding: binds
